Record: PubChem BioAssay AID504793 (Drosophila RNAi Screening Center, 2011)
The screen tested about 23,000 reagents; shown is an unselected part of those that have a named target and a result. Over the whole deposit, 62 (0.27%) are marked active. 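Calls come from follow-up tests whose scores are not deposited, so confirmed genes may have low counts here; counts are not normalised per plate.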 Raw values are not corrected between plates. A number with no mark means an inactive call. The numbers tell different reagents against one gene apart. Names joined by + are all predicted targets of the reagent.

Assay: 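Genes required for cells to halt at G2/M after double-strand DNA breaks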 (primary screen)
Cells: Drosophila S2R+ cells
Knock-down reagent: long dsRNA against Drosophila genes, about 0.25 µg dsRNA per well
Timing: 4 days of dsRNA, then 4 hours of drug before read-out
Conditions: doxorubicin 0.5 µM for 4 hours to cause double-strand breaks, in cells also given a low, harmless dose of dsRNA against nbs to sensitise the assay
Detection: 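Per-well count of mitotic cells stained for phospho-histone H3 after doxorubicin exposure, used as mitotic index; counts are raw and not normalised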
Reading the numbers: mitotic cells: higher = more cells in mitosis, weaker G2 arrest
Active means: 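a call needs confirmation in secondary tests, with other dsRNAs and a check of mitotic timing without damage, not just a high primary count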
Calls: active = confirmed in follow-up tests; inactive = not confirmed

no.	gene	dsRNA no.	mitotic cells, replicate 1	mitotic cells, replicate 2
1	alt	1	9	
2	alt	2	6	
3	CG33128	1	4	
4	CG33128	2	4	
5	CG15765	1	11	
6	CG15765	2	7	
7	dtn	1	13	
8	dtn	2	7	
9	Tie	1	10	
10	Tie	2	4	
11	CG6028	1	4	
12	Vha14-2	1	2	
13	CG5391	1	12	
14	CG8180	1	6	
15	CG8180	2	7	
16	CG6015	1	9	
17	CG6015	2	4	
18	CG14817	1	9	
19	CG34408	1	6	
20	CG34408	2	9	
21	CG34408	3	8	
22	CG34408	4	1	
23	eIF1	1	4	
24	eIF1	2	3	
25	Kat60	1	6	
26	CG7916	1	1	
27	Act79B	1	2	
28	Act79B	2	6	
29	CG15572	1	9	
30	Vps16B	1	17	
31	Hira	1	18	
32	Nrx-1	1	13	
33	CG5509	1	7	
34	CG31998	1	24	
35	CG31998	2	14	
36	Polr1B	1	5	
37	mRpL27	1	14	
38	CG13510	1	3	
39	CG7016	1	11	
40	Cnx99A + Cnx14D	1	15	
41	CG32201	1	15	
42	eIF4E5	1	4	
43	eIF4E5	2	8	
44	CG42671	1	4	
45	CG42671	2	6	
46	CG42671	3	1	
47	CG34460	1	5	
48	bma	1	5	
49	bma	2	3	
50	bma	3	4	
51	CASK	1	9	
52	CASK	2	12	
53	CASK	3	5	
54	CASK	4	17	
55	CASK	5	3	
56	jef	1	8	
57	jef	2	2	
58	Pi3K59F	1	5	
59	Pi3K59F	2	4	
60	tHMG2	1	6	
61	nerfin-1	1	4	
62	CG7943	1	5	
63	CG5550	1	6	
64	CG5550	2	13	
65	Scsalpha1	1	6	
66	Scsalpha1	2	1	
67	CG34436	1	10	
68	chm	1	9	
69	chm	2	3	

In a second layout: entries from further up
| gene | dsRNA no. | mitotic cells, replicate 1 | mitotic cells, replicate 2 |
| --- | --- | --- | --- |
| CG7016 | 1 | 11 | – |
| Cnx99A + Cnx14D | 1 | 15 | – |
| CG32201 | 1 | 15 | – |
| eIF4E5 | 1 | 4 | – |
| eIF4E5 | 2 | 8 | – |
| CG42671 | 1 | 4 | – |
| CG42671 | 2 | 6 | – |
| CG42671 | 3 | 1 | – |
| CG34460 | 1 | 5 | – |
| bma | 1 | 5 | – |
| bma | 2 | 3 | – |
| bma | 3 | 4 | – |
| CASK | 1 | 9 | – |

Next entries follow:
no.	gene	dsRNA no.	mitotic cells, replicate 1	mitotic cells, replicate 2
70	Ir56c	1	5	
71	Ir56c	2	6	
72	CG12674	1	2	
73	phr	1	6	
74	Irk3	1	3	
75	spn-D	1	6	
76	aly	1	1	
77	aly	2	8	
78	aly	3	6	
79	eIF4G2	1	7	
80	eIF4G2	2	10	
81	CG11664	1	14	
82	CG31797	1	9	
83	CG31797	2	3	
84	djl	1	4	
85	djl	2	6	
86	Nrk	1	4	
87	Xe7	1	3	
88	DnaJ-H	1	5	
89	mdlc	1	11	
90	mdlc	2	3	
91	Glyp	1	9	
92	Ltn1	1	3	
93	Ltn1	2	7	
94	Ddr	1	5	
95	Ddr	2	1	11
96	Ddr	3	7	
97	Ddr	4	12	
98	CG32599	1	5	
99	CG32599	2	6	
100	CG12133	1	1	
101	CG12133	2	7	
102	Or56a	1	4	
103	CecB	1	8	
104	CG31953 (retired record) + gkt	1	1	
105	Vti1a	1	4	
106	CG7196 (retired record)	1	6	
107	CG7196 (retired record)	2	5	
108	CG2070	1	5	
109	UbcE2H	1	5	
110	UbcE2H	2	6	
